Experimental data from PubChem BioAssay AID1347076 (National Center for Advancing Translational Sciences (NCATS), 2019).
Out of some 400,000 compounds screened, about 13,000 (3.2%) were called active. Inconclusive means that the source gave no clear call. Such entries were picked first, then a sample of the others. Calls come from the whole dose curve; as a rule, active = well fitted cell-killing curve with a large enough effect; inconclusive = small, poorly fitted or top-dose-only effect, or effect the other way; inactive = flat fitted curve, though single readings scatter. A potency beside an inconclusive call is a rough fit, not a confirmed value.

experiment: qHTS assay for MDR1-selective chemotherapeutics: Primary screen using the drug-selected MDR subline cells KB-V1; conditions: KB-V1 MDR cells viability, CellTiter-Glo, 72 h; activity change, negative = cytotoxicity: at 46.1 µM (top of the series); note: nearly all actives have a fitted effect of over 60% in size
Outline: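 Following 72 h at 37 degrees C with compound, KB-V1 cell viability was read by CellTiter-Glo luminescence, medium being phenol-red-free DMEM plus 10% FBS; concentration-response parameters came from normalized, curve-fitted qHTS data.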
% is set by controls: 0 for no effect and ±100 for the full control effect; potency is the fitted concentration of half-maximal effect.

For `COc1ccc(NC(=O)C2CCCN(c3nnc(C)c4c(C)n(-c5ccccc5)nc34)C2)cc1Cl` (stereo unspecified), which “activity change, negative = cytotoxicity” value is on record?
The value was inactive: -24.9%.

For `CC(C)c1ccc(N2C(=O)CSC23C(=O)N(Cc2ccccc2)c2ccccc23)cc1` (stereo unspecified), which Potency is on record?
The Potency was active: 11.6 µM.

For `COc1ccc(C(=O)Nc2cccc3nc(C)ccc23)c(OC)c1`, which Potency is on record?
Its Potency is inconclusive: 7.31 µM [cytotoxic, partial curve].

With `CCOC(=O)CCCCC1C(CCCC(=O)OCC)C=NN1C` (stereo unspecified) as the compound, how does the Potency read?
The Potency was inconclusive: 29.1 µM [cytotoxic, single point].

For `COc1cc(OC)cc(C(=O)Nc2ccc(C(=O)Nc3ccccc3OC)cc2)c1`, which Potency is on record?
The Potency was inconclusive: 32.6 µM [cytotoxic, single point].

With `CCN(Cc1nc(-c2ccc(OC)c(OC)c2)no1)C(=O)c1ccc2c(c1)OCO2` as the compound, how does the Potency read?
The Potency was inconclusive: 9.2 µM [cytotoxic, partial curve].

Which Potency does the source give for `CC(=O)NC(CC(=O)OCC(=O)Nc1cc(S(=O)(=O)N2CCCCC2)ccc1C)c1ccccc1` (stereo unspecified) here?
Its Potency is inconclusive: 14.6 µM [cytotoxic, partial curve].

Which Potency does the source give for `N/C(=N\OC(=O)c1ccc([N+](=O)[O-])cc1Cl)c1ccccn1` here?
Its Potency is inconclusive: 29.1 µM [cytotoxic, single point].

With `Nc1c(C(=O)NCCN2CCOCC2)c2nc3ccccc3nc2n1-c1ccccc1` as the compound, how does the Potency read?
Its Potency is inconclusive: 29.1 µM [cytotoxic, single point].

With `O=C(Cc1ccc[nH]c1=O)c1ccc(F)cc1` as the compound, how does the “activity change, negative = cytotoxicity” value read?
Its value is inactive: 6.52%.

With `CC(C)(C)C(C(=O)NCc1ccccc1)N1CCN(CCN2CCOCC2)CC1` (stereo unspecified) as the compound, how does the Potency read?
Its Potency is inconclusive: 20.6 µM [cytotoxic, partial curve].

For `CC1=NN(C(N)=S)C(=O)C1N=Nc1c(C)cc(C)cc1C` (stereo unspecified), which Potency is on record?
Its Potency is inconclusive: 5.8 µM [cytotoxic, partial curve, poor fit].

With `CSc1nc(SCC(=O)O)c2sc3nc(-c4ccccc4)c4c(c3c2n1)CCC4` as the compound, how does the Potency read?
Its Potency is inconclusive: 23.1 µM [cytotoxic, single point].

With `COc1ccc(NC(=O)N2CCN(S(=O)(=O)c3ccc4c(ccn4C)c3)CC2)c(OC)c1` as the compound, how does the Potency read?
Its Potency is inconclusive: 7.31 µM [cytotoxic, partial curve].

Which Potency does the source give for `Cc1cc(C(=O)OCc2nc3ccccc3s2)c(C)o1` here?
The Potency was inconclusive: 25.9 µM [cytotoxic, single point].

For `C#CCOCCOCCOCCNc1nc(N2CCN(C(=O)[C@H](C)n3cc(CCC(=O)O)nn3)CC2)nc(N2CCN(C(=O)[C@H](C)n3cc(CCC(=O)O)nn3)CC2)n1`, which Potency is on record?
Its Potency is inconclusive: 2.31 µM [rising, partial curve, poor fit].

With `O=c1nc(Nc2cccc(Cl)c2)oc2cc(Cl)oc(=O)c12` as the compound, how does the Potency read?
Its Potency is inconclusive: 0.0046 µM [rising, full curve].

For `Cc1ccc(S(=O)(=O)NC(C)(C)C)cc1C(=O)OCC(=O)N1CCCC1=O`, which “activity change, negative = cytotoxicity” value is on record?
The value was inactive: 0%.

Which Potency does the source give for `CC(C)(C)C(=O)c1c(N)[nH]c(C(=O)c2ccccc2)c1-c1ccccc1Br` here?
The Potency was inconclusive: 20.6 µM [cytotoxic, partial curve, poor fit].

Which Potency does the source give for `CCc1nc2ccc(C(=O)NCc3ccc(OC)cc3)cn2c1N(C)CCC(C)C` here?
Its Potency is inconclusive: 4.11 µM [cytotoxic, partial curve].

Which Potency does the source give for `O=S(=O)(c1ccc(F)cc1)N1CCN(c2nc(-c3ccc(F)cc3)cs2)CC1` here?
Its Potency is inconclusive: 29.1 µM [cytotoxic, single point].

With `O=C(c1ccc2c(=O)n(C3CCCC3)c(=S)[nH]c2c1)N1CCCCCC1` as the compound, how does the Potency read?
Its Potency is active: 7.31 µM.

For `O=C(N/N=C/c1cccc(O)c1)c1csc2ccccc12`, which Potency is on record?
Its Potency is inconclusive: 25.9 µM [cytotoxic, single point].

With `Cc1ccccc1OCCN1CCCC1` as the compound, how does the Potency read?
The Potency was inconclusive: 20.6 µM [rising, single point].

For `CCOc1ccc(S(=O)(=O)N2CCN(C)CC2)c(C)c1C`, which Potency is on record?
Its Potency is inconclusive: 13 µM [cytotoxic, partial curve].

With `COCCOC(=O)C1=C(C)N(c2ccccc2)C(=S)NC1c1ccccc1C(F)(F)F` (stereo unspecified) as the compound, how does the “activity change, negative = cytotoxicity” value read?
Its value is inactive: -22.4%.

For `CCOC(=O)c1cc(-c2cccc(O)c2)oc1C`, which “activity change, negative = cytotoxicity” value is on record?
Its value is inactive: 0%.

For `COC(=O)c1cc2occc2n1Cc1nc(-c2ccc(C)cc2)oc1C`, which “activity change, negative = cytotoxicity” value is on record?
Its value is inactive: -14.7%.

For `CCCCCCCCN1C(=O)[C@H](CC(=O)NCC2CCCCC2)C[C@@]2(C(=O)OCC)CCC=C12`, which Potency is on record?
Its Potency is inconclusive: 7.31 µM [cytotoxic, partial curve].

Which Potency does the source give for `COc1ccc(C2Nc3ccccc3C(=O)N2c2ccccc2)cc1CN1CCOCC1` (stereo unspecified) here?
The Potency was inconclusive: 29.1 µM [rising, single point].

Which “activity change, negative = cytotoxicity” value does the source give for `Cc1cccc(-n2nc([N+](=O)[O-])c(=NC3CCN(Cc4ccccc4)CC3)n2O)c1` here?
The value was inactive: -10.1%.

With `Cc1ccc(S(=O)(=O)N2[C@H](CC(=O)c3cccc4ccccc34)OC[C@@H]2C(C)C)cc1` as the compound, how does the Potency read?
The Potency was inconclusive: 20.6 µM [cytotoxic, single point].

For `COc1ccccc1CC(=O)Nc1ccc(-c2nnc(-c3ccco3)o2)cc1`, which Potency is on record?
Its Potency is inconclusive: 9.2 µM [cytotoxic, partial curve, poor fit].

For `CC(OC(=O)/C=C/c1ccco1)C(=O)NC1CCCCC1` (stereo unspecified), which Potency is on record?
Its Potency is inconclusive: 23.1 µM [cytotoxic, single point].

For `CC(C)(C)c1ccc(-c2nnc(SCC(=O)Nc3sc4c(c3C#N)CCCC4)o2)cc1`, which “activity change, negative = cytotoxicity” value is on record?
The value was inactive: 20.2%.

Which “activity change, negative = cytotoxicity” value does the source give for `CCN(CC)C(=S)SC1=CCS(=O)(=O)C1` here?
The value was inactive: -1.24%.

With `CCCCN(C(=S)Nc1cccc(C)c1C)c1c(N)n(CCC)c(=O)[nH]c1=O` as the compound, how does the Potency read?
The Potency was inconclusive: 11.6 µM [rising, partial curve, poor fit].

For `Cc1ccc(C(=O)Oc2cc(C)[nH]c(=O)c2[N+](=O)[O-])cc1`, which Potency is on record?
Its Potency is inconclusive: 9.2 µM [rising, partial curve].

For `COc1ccc(CN(CC(=O)NC2CCCC2)C(=O)c2ccc(-c3ccccc3)[nH]2)cc1`, which Potency is on record?
Its Potency is inconclusive: 14.6 µM [cytotoxic, partial curve].

For `CC1(C(=O)NS(=O)(=O)c2ccc3c(c2)CCO3)CCN1C(=O)COc1ccc(Cl)cc1` (stereo unspecified), which “activity change, negative = cytotoxicity” value is on record?
Its value is inactive: 2.02%.

With `Cc1ccc(S(=O)(=O)N2CCCC(C(=O)N3CCN(c4ccccc4)CC3)C2)cc1` (stereo unspecified) as the compound, how does the Potency read?
Its Potency is inconclusive: 29.1 µM [cytotoxic, single point].

Which “activity change, negative = cytotoxicity” value does the source give for `O=C(NCc1ccc(Cl)cc1)C1CCCN(c2ncnc3c2nc2n3CCCCC2)C1` (stereo unspecified) here?
Its value is inactive: -2.34%.

Which Potency does the source give for `Cc1cc(C(=O)COc2nncc3ccccc23)c(C)n1C` here?
The Potency was inconclusive: 0.0065 µM [rising, full curve, poor fit].

For `CCc1ccc(NC(=S)N(Cc2ccccc2)Cc2ccccn2)cc1`, which “activity change, negative = cytotoxicity” value is on record?
Its value is inactive: 9.16%.

Which Potency does the source give for `Cc1cccc(NC(=S)N=Nc2c(O)n(C)c3ccc(S(=O)(=O)N4CCOCC4)cc23)c1` here?
The Potency was active: 0.731 µM.

With `c1ccc(COCCN2CCN(CCOCc3ccccc3)CC2)cc1` as the compound, how does the Potency read?
The Potency was active: 23.1 µM.

Which Potency does the source give for `CCc1noc(C)c1C(=O)Nc1cc(Cl)ccc1N1CCCC1` here?
Its Potency is inconclusive: 20.6 µM [cytotoxic, single point].

Which Potency does the source give for `COc1ccc(NC(=O)CSc2nccn2-c2cccc(OC)c2)cc1` here?
Its Potency is inconclusive: 9.2 µM [cytotoxic, partial curve, poor fit].

With `CC(=O)c1c(C)[nH]c(C(=O)Nc2cccc(S(=O)(=O)N(C)c3ccccc3)c2)c1C` as the compound, how does the Potency read?
The Potency was inconclusive: 23.1 µM [cytotoxic, partial curve, poor fit].

Which Potency does the source give for `CN1CCN(c2ccc(C(=O)c3cn(-c4ccc(F)c(Cl)c4)nn3)cc2)CC1` here?
The Potency was inconclusive: 14.6 µM [cytotoxic, partial curve].

With `Cc1cccc(C)c1NC(=O)CN(C)C(=O)C1CCN(c2ncnc3sc(C)c(C)c23)CC1` as the compound, how does the Potency read?
The Potency was inconclusive: 8.2 µM [cytotoxic, partial curve].

For `CN(Cc1ccc(C(C)(C)C)cc1)C(=O)C1CCN(C(=O)Nc2ccccc2)CC1`, which “activity change, negative = cytotoxicity” value is on record?
The value was inactive: -8.51%.

Which Potency does the source give for `CN(CCNC(=O)c1c[nH]c2c1ccc1ccccc12)CCNC(=O)c1c[nH]c2c1ccc1ccccc12` here?
The Potency was inconclusive: 29.1 µM [cytotoxic, single point].

With `COc1cc(C(=O)NC(=S)Nc2ccccc2N2CCOCC2)cc(OC)c1OC` as the compound, how does the Potency read?
The Potency was inconclusive: 29.1 µM [cytotoxic, single point].

Which “activity change, negative = cytotoxicity” value does the source give for `O=C(CN1C(=O)C(=O)N(C2CCCC2)C1=O)Nc1ccc(OC(F)F)cc1` here?
Its value is inactive: 3.82%.

For `CCOc1cccc(C(=O)Nc2cccc(-c3nnc(-c4ccccc4)o3)c2)c1`, which “activity change, negative = cytotoxicity” value is on record?
The value was inactive: 20.8%.

For `COc1ccccc1NC(=O)NNC(=O)CN1C(=O)COc2ccccc21`, which Potency is on record?
The Potency was inconclusive: 16.4 µM [rising, single point].

With `CC(C)n1c(O)c(N=Nc2ccc(Cl)nn2)c2ccccc21` as the compound, how does the Potency read?
The Potency was active: 11.6 µM.

For `Cc1ccc(NC(=O)CN2C(=O)NC3(CCCc4ccccc43)C2=O)c(Cl)c1` (stereo unspecified), which “activity change, negative = cytotoxicity” value is on record?
Its value is inactive: -5.1%.

Which Potency does the source give for `CN(Cc1nc(Cc2ccccc2F)no1)Cc1cccc2ncccc12` here?
Its Potency is inconclusive: 6.51 µM [cytotoxic, partial curve].

Which Potency does the source give for `O=C(c1ccc(S(=O)(=O)Nc2ccccc2F)cc1)N1CCN(c2ccccn2)CC1` here?
The Potency was inconclusive: 23.1 µM [cytotoxic, single point].

For `Cn1cnc2c(=O)oc3ccc(S(=O)(=O)N4CCN(c5cccc(Cl)c5)CC4)cc3c21`, which “activity change, negative = cytotoxicity” value is on record?
The value was inactive: 0%.

With `C(=N/Nc1nc(-c2ccccc2)cc(-c2ccccc2)n1)/c1cccnc1` as the compound, how does the Potency read?
Its Potency is inconclusive: 5.8 µM [cytotoxic, partial curve, poor fit].

Which Potency does the source give for `CC1(c2nnnn2Cc2ccccc2)CCC(=O)N1CCCN1CCOCC1` (stereo unspecified) here?
The Potency was inconclusive: 23.1 µM [rising, partial curve, poor fit].

Which Potency does the source give for `Cc1ccccc1C(=O)N1CCC(C(=O)Nc2ccc(S(=O)(=O)N3CCOCC3)cc2)CC1` here?
The Potency was inconclusive: 32.6 µM [rising, partial curve, poor fit].

For `COc1ccc(C(=O)Nc2ccccc2)cc1S(=O)(=O)Nc1cc(C)on1`, which “activity change, negative = cytotoxicity” value is on record?
Its value is inactive: -8.31%.
